Results deposited as PubChem BioAssay AID743121 (NCATS, 2013)
In all, the deposit lists about 26,000 reagents; shown is a random part of them. 167 of them (0.63%) count as active. 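Calls are per gene from RSA p-values that are not deposited; an individual active-marked siRNA can sensitise only weakly.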 Reagents against one gene are numbered here. Further read-outs or replicates are left out here.

Purpose: 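Genes whose silencing strengthens cell killing by camptothecin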 (primary screen)
Cells: MDA-MB-231 cells, a human breast cancer line
Reagents: single siRNA against human genes, 20 nM siRNA (0.8 pmol per well)
Time to read-out: 120 h (drug added 48 h after transfection, read 72 h later)
Treatment: camptothecin 20 nM (about EC30) for 72 h; vehicle 0.1% DMSO in parallel plates
Measured: 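Cell viability by ATP luminescence (CellTiter-Glo) as % of non-targeting siRNA wells, and the log2 ratio of viability without drug over viability with camptothecin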
Scale: log2 vehicle/camptothecin viability: higher = stronger sensitisation to camptothecin
Active means: 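Each gene scored by redundant siRNA activity (RSA) over its individual siRNA ratios; a gene is called active at p < 0.001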

| gene symbol | siRNA no. | log2 vehicle/camptothecin viability | activity call |
| --- | --- | --- | --- |
| KIF2C (GeneID 11004) | 1 | 0.194 | inactive |
| KIF2C (GeneID 11004) | 2 | -0.0688 | inactive |
| KIF2C (GeneID 11004) | 3 | -0.437 | inactive |
| SGK2 (GeneID 10110) | 1 | -0.187 | inactive |
| SGK2 (GeneID 10110) | 2 | -0.87 | inactive |
| SGK2 (GeneID 10110) | 3 | 0.0475 | inactive |
| SGK2 (GeneID 10110) | 4 | 0.0547 | inactive |
| HAT1 (GeneID 8520) | 1 | -0.482 | inactive |
| HAT1 (GeneID 8520) | 2 | 0.218 | inactive |
| HAT1 (GeneID 8520) | 3 | -0.0569 | inactive |
| HAT1 (GeneID 8520) | 4 | -0.407 | inactive |
| SIK1 (GeneID 150094) | 1 | -0.181 | inactive |
| SIK1 (GeneID 150094) | 2 | -0.243 | inactive |
| SIK1 (GeneID 150094) | 3 | -0.568 | inactive |
| SIK1 (GeneID 150094) | 4 | -0.257 | inactive |
| AIFM1 (GeneID 9131) | 1 | -0.283 | inactive |
| AIFM1 (GeneID 9131) | 2 | 0.45 | inactive |
| AIFM1 (GeneID 9131) | 3 | -0.411 | inactive |
| AIFM1 (GeneID 9131) | 4 | -0.0283 | inactive |
| AIFM1 (GeneID 9131) | 5 | -0.118 | inactive |
| AIFM1 (GeneID 9131) | 6 | -0.257 | inactive |
| AIFM1 (GeneID 9131) | 7 | 0.0671 | inactive |
| AIFM1 (GeneID 9131) | 8 | -0.153 | inactive |
| TOMM40 (GeneID 10452) | 1 | 0.0711 | inactive |
| TOMM40 (GeneID 10452) | 2 | -0.0683 | inactive |
| TOMM40 (GeneID 10452) | 3 | -0.589 | inactive |
| TOMM40 (GeneID 10452) | 4 | -0.103 | inactive |
| CD3G (GeneID 917) | 1 | -0.0891 | inactive |
| CD3G (GeneID 917) | 2 | -0.635 | inactive |
| CD3G (GeneID 917) | 3 | -0.0541 | inactive |
| CD3G (GeneID 917) | 4 | -0.392 | inactive |
| NLGN3 (GeneID 54413) | 1 | -0.0619 | inactive |
| NLGN3 (GeneID 54413) | 2 | 0.766 | inactive |
| NLGN3 (GeneID 54413) | 3 | -0.104 | inactive |
| PSMA5 (GeneID 5686) | 1 | -0.526 | inactive |
| PSMA5 (GeneID 5686) | 2 | -0.412 | inactive |
| PSMA5 (GeneID 5686) | 3 | -0.363 | inactive |
| PSMA5 (GeneID 5686) | 4 | 0.742 | inactive |
| TMX1 (GeneID 81542) | 1 | 0.00911 | inactive |
| TMX1 (GeneID 81542) | 2 | -0.183 | inactive |
| TMX1 (GeneID 81542) | 3 | -0.117 | inactive |
| TMX1 (GeneID 81542) | 4 | 0.0279 | inactive |
| RGS5 (GeneID 8490) | 1 | -0.386 | inactive |
| RGS5 (GeneID 8490) | 2 | -0.136 | inactive |
| RGS5 (GeneID 8490) | 3 | -0.0527 | inactive |
| RGS5 (GeneID 8490) | 4 | -0.562 | inactive |
| PGK2 (GeneID 5232) | 1 | -0.145 | inactive |
| PGK2 (GeneID 5232) | 2 | -0.452 | inactive |
| PGK2 (GeneID 5232) | 3 | -0.175 | inactive |
| PGK2 (GeneID 5232) | 4 | -0.00318 | inactive |
| FCRL2 (GeneID 79368) | 1 | -0.501 | inactive |
| FCRL2 (GeneID 79368) | 2 | -0.347 | inactive |
| FCRL2 (GeneID 79368) | 3 | -0.113 | inactive |
| FCRL2 (GeneID 79368) | 4 | -0.0874 | inactive |
| XPC (GeneID 7508) | 1 | -0.201 | inactive |
| XPC (GeneID 7508) | 2 | 0.0281 | inactive |
| XPC (GeneID 7508) | 3 | -0.0236 | inactive |
| GPX6 (GeneID 257202) | 1 | 0.21 | inactive |
| GPX6 (GeneID 257202) | 2 | 0.45 | inactive |
| GPX6 (GeneID 257202) | 3 | -0.26 | inactive |
| GPX6 (GeneID 257202) | 4 | 0.0966 | inactive |
| IFNA4 (GeneID 3441) | 1 | -0.183 | inactive |
| IFNA4 (GeneID 3441) | 2 | -0.389 | inactive |
| IFNA4 (GeneID 3441) | 3 | -0.32 | inactive |
| IFNA4 (GeneID 3441) | 4 | -0.165 | inactive |
| IFNA4 (GeneID 3441) | 5 | -0.264 | inactive |
| SLC9B2 (GeneID 133308) | 1 | 0.59 | inactive |
| SLC9B2 (GeneID 133308) | 2 | 0.105 | inactive |
| SLC9B2 (GeneID 133308) | 3 | -0.0152 | inactive |
| SLC9B2 (GeneID 133308) | 4 | -0.0619 | inactive |

Entries listed so far whose target name begins with H or h:
| gene symbol | siRNA no. | log2 vehicle/camptothecin viability | activity call |
| --- | --- | --- | --- |
| HAT1 (GeneID 8520) | 1 | -0.482 | inactive |
| HAT1 (GeneID 8520) | 2 | 0.218 | inactive |
| HAT1 (GeneID 8520) | 3 | -0.0569 | inactive |
| HAT1 (GeneID 8520) | 4 | -0.407 | inactive |
